From PubChem BioAssay AID248 (DTP/NCI, 2004)
The list does not hold the whole screen: it gathers some chemical classes. Not every dose and run of a compound is shown. T/C is the treated group as % of the vehicle group. Where survival is the endpoint, the PubChem record calls one and a half times the control and up active, and a quarter to a half above the control has no call in these data; cut-offs in other NCI protocols can differ. Some T/C values are marked as having no survivor count here; that says nothing about deaths at the dose. Schedules are NCI's codes, taken here to give the interval after Q, in days (D) or hours (H), and the number of doses after X. Counts like (3×) count equal records among those shown. Some entries hold several experiments; their values stand side by side, smallest first. Some schedules carry Z or #; the key to these is not given.

System: L1210 leukemia ip in BDF1 mice, survival T/C
Experiment: NCI In Vivo Anticancer Drug Screen. Data for tumor model L1210 Leukemia (intraperitoneal) in B6D2F1 (BDF1) mice
Details: T/C endpoint: mean survival time, higher T/C = longer survival
[1] = dose: 50.0 mg/kg/injection, schedule: Q01DX001 (ip), vehicle: saline
[2] = dose: 100.0 mg/kg/injection, schedule: Q01DX001 (ip), vehicle: saline

## ClCCN1CCN(CCCl)CC1
dose: 0.25 mg/kg/injection, schedule: Q01DX009 (ip), vehicle: saline
  T/C: 105 % of control [survivor count not shown]
dose: 0.25 mg/kg/injection, schedule: Q04DX003 (ip), vehicle: saline
  T/C: 110 % of control [survivor count not shown]
dose: 0.5 mg/kg/injection, schedule: Q01DX009 (ip), vehicle: saline
  T/C: 95 % of control [survivor count not shown]
dose: 0.5 mg/kg/injection, schedule: Q04DX003 (ip), vehicle: saline
  T/C: 103 [survivor count not shown], 115 [survivor count not shown], 116 % of control [survivor count not shown]
dose: 1.0 mg/kg/injection, schedule: Q04DX003 (ip), vehicle: saline
  T/C: 127 [survivor count not shown], 130 [survivor count not shown], 137 % of control [survivor count not shown]
dose: 2.0 mg/kg/injection, schedule: Q01DX009 (ip), vehicle: saline
  T/C: 102 % of control [survivor count not shown]
dose: 2.0 mg/kg/injection, schedule: Q04DX003 (ip), vehicle: saline
  T/C: 127 [survivor count not shown] and 130 % of control [survivor count not shown]
dose: 4.0 mg/kg/injection, schedule: Q04DX003 (ip), vehicle: saline
  T/C: 103 % of control [survivor count not shown]

## O=C(O)CCOc1ccccc1N(CCCl)CCCl
dose: 1.8 mg/kg/injection, schedule: Q01DX Z (ip), vehicle: methylcellulose (MC)
  T/C: 111 % of control [survivor count not shown]
dose: 2.7 mg/kg/injection, schedule: Q01DX Z (ip), vehicle: methylcellulose (MC)
  T/C: 128 % of control [survivor count not shown]
dose: 3.75 mg/kg/injection, schedule: Q01DX Z (ip), vehicle: methylcellulose (MC)
  T/C: 97 [survivor count not shown], 106 [survivor count not shown], 111 % of control [survivor count not shown]
dose: 4.0 mg/kg/injection, schedule: Q01DX Z (ip), vehicle: methylcellulose (MC)
  T/C: 125 % of control [survivor count not shown]
dose: 5.0 mg/kg/injection, schedule: Q01DX001 (ip), vehicle: carboxymethylcellulose (CMC)
  T/C: 107 % of control [survivor count not shown]
dose: 6.0 mg/kg/injection, schedule: Q01DX Z (ip), vehicle: methylcellulose (MC)
  T/C: 130 [survivor count not shown] and 148 % of control [survivor count not shown]
dose: 7.5 mg/kg/injection, schedule: Q01DX Z (ip), vehicle: methylcellulose (MC)
  T/C: 96 [survivor count not shown], 112 [survivor count not shown], 120 % of control [survivor count not shown]
dose: 9.0 mg/kg/injection, schedule: Q01DX Z (ip), vehicle: methylcellulose (MC)
  T/C: 125 % of control [survivor count not shown]
dose: 10.0 mg/kg/injection, schedule: Q01DX001 (ip), vehicle: carboxymethylcellulose (CMC)
  T/C: 113 % of control [survivor count not shown]
dose: 13.0 mg/kg/injection, schedule: Q01DX Z (ip), vehicle: methylcellulose (MC)
  T/C: 168 % of control [survivor count not shown]
dose: 15.0 mg/kg/injection, schedule: Q01DX Z (ip), vehicle: methylcellulose (MC)
  T/C: 98 [survivor count not shown], 107 [survivor count not shown], 111 % of control [survivor count not shown]
dose: 17.7 mg/kg/injection, schedule: Q01DX001 (ip), vehicle: carboxymethylcellulose (CMC)
  T/C: 109 % of control [survivor count not shown] (2×)
dose: 20.0 mg/kg/injection, schedule: Q01DX001 (ip), vehicle: carboxymethylcellulose (CMC)
  T/C: 125 % of control [survivor count not shown]
dose: 20.0 mg/kg/injection, schedule: Q01DX Z (ip), vehicle: methylcellulose (MC)
  T/C: 128 % of control [survivor count not shown]
dose: 26.6 mg/kg/injection, schedule: Q01DX001 (ip), vehicle: carboxymethylcellulose (CMC)
  T/C: 109 [survivor count not shown] and 118 % of control [survivor count not shown]
dose: 30.0 mg/kg/injection, schedule: Q01DX Z (ip), vehicle: methylcellulose (MC)
  T/C: 111 % of control [survivor count not shown]
dose: 40.0 mg/kg/injection, schedule: Q01DX001 (ip), vehicle: carboxymethylcellulose (CMC)
  T/C: 126 [survivor count not shown] and 128 % of control [survivor count not shown]
dose: 60.0 mg/kg/injection, schedule: Q01DX001 (ip), vehicle: carboxymethylcellulose (CMC)
  T/C: 101 % of control [survivor count not shown]
dose: 60.0 mg/kg/injection, schedule: Q01DX Z (ip), vehicle: methylcellulose (MC)
  T/C: 102 % of control [survivor count not shown]

## CCC(C)NN(CCCl)CCCl (stereo not drawn)
[1]
  T/C: 108 % of control [survivor count not shown]
[2]
  T/C: 135 % of control [survivor count not shown]
dose: 200.0 mg/kg/injection, schedule: Q01DX001 (ip), vehicle: saline
  T/C: 152 % of control [survivor count not shown]

## COc1ccc([N+](=O)[O-])cc1CN(CCBr)CCBr
dose: 100.0 mg/kg/injection, schedule: Q01DX001 (ip), vehicle: Klucel (hydroxypropylcellulose) (HPC)
  T/C: 107 % of control [survivor count not shown]
dose: 200.0 mg/kg/injection, schedule: Q01DX001 (ip), vehicle: Klucel (hydroxypropylcellulose) (HPC)
  T/C: 100 % of control [survivor count not shown]

## O=C(O)/C(O)=C/c1ccc(N(CCF)CCCl)cc1
dose: 25.0 mg/kg/injection, schedule: Q01DX001 (ip), vehicle: saline
  T/C: 107 % of control [survivor count not shown]
dose: 25.0 mg/kg/injection, schedule: Q04DX003 (ip), vehicle: acetone
  T/C: 103 % of control [survivor count not shown]
[1]
  T/C: 105 % of control [survivor count not shown]
dose: 50.0 mg/kg/injection, schedule: Q04DX003 (ip), vehicle: acetone
  T/C: 111 % of control [survivor count not shown]
dose: 66.0 mg/kg/injection, schedule: Q04DX003 (ip), vehicle: saline
  T/C: 105 % of control [survivor count not shown]
dose: 100.0 mg/kg/injection, schedule: Q04DX003 (ip), vehicle: acetone
  T/C: 127 % of control [survivor count not shown]
dose: 100.0 mg/kg/injection, schedule: Q04DX003 (ip), vehicle: saline
  T/C: 104 % of control [survivor count not shown]
dose: 150.0 mg/kg/injection, schedule: Q04DX003 (ip), vehicle: saline
  T/C: 115 % of control [survivor count not shown]

## Oc1ccc(Br)cc1CN(CCCl)CCCl
dose: 5.0 mg/kg/injection, schedule: Q01DX001 (ip), vehicle: saline
  T/C: 93 % of control [survivor count not shown]
dose: 5.7 mg/kg/injection, schedule: Q01DX015 (ip), vehicle: saline
  T/C: 113 % of control [survivor count not shown]
dose: 10.0 mg/kg/injection, schedule: Q01DX001 (ip), vehicle: saline
  T/C: 113 % of control [survivor count not shown]
dose: 10.0 mg/kg/injection, schedule: Q01DX015 (ip), vehicle: saline
  T/C: 120 % of control [survivor count not shown]
dose: 16.0 mg/kg/injection, schedule: Q01DX015 (ip), vehicle: saline
  T/C: 124 % of control [survivor count not shown]
dose: 20.0 mg/kg/injection, schedule: Q01DX001 (ip), vehicle: saline
  T/C: 116 % of control [survivor count not shown]
dose: 27.0 mg/kg/injection, schedule: Q01DX015 (ip), vehicle: saline
  T/C: 95 % of control [survivor count not shown]
dose: 35.0 mg/kg/injection, schedule: Q01DX001 (ip), vehicle: saline
  T/C: 106 [survivor count not shown] and 122 % of control [survivor count not shown]
dose: 40.0 mg/kg/injection, schedule: Q01DX001 (ip), vehicle: saline
  T/C: 127 % of control [survivor count not shown]
dose: 53.0 mg/kg/injection, schedule: Q01DX001 (ip), vehicle: saline
  T/C: 117 [survivor count not shown] and 130 % of control [survivor count not shown]
dose: 80.0 mg/kg/injection, schedule: Q01DX001 (ip), vehicle: saline
  T/C: 117 [survivor count not shown], 121 [survivor count not shown], 133 % of control [survivor count not shown]
[2]
  T/C: 110 % of control [survivor count not shown]
dose: 120.0 mg/kg/injection, schedule: Q01DX001 (ip), vehicle: saline
  T/C: 127 % of control [survivor count not shown]
